The record followed here is article PMC13343191.

Chains of the proteins cited; added tags and fusions are not shown. Residues count along the entry.
UniProt P27695, 34-318, stated change not applied: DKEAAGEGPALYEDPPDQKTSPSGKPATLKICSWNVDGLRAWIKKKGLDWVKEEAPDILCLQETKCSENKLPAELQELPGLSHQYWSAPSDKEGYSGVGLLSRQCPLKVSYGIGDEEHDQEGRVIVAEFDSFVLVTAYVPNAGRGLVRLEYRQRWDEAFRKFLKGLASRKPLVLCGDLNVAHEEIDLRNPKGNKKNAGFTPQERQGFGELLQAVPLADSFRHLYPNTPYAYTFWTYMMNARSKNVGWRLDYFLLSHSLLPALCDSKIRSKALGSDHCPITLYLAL
UniProt Q15365, whole entry: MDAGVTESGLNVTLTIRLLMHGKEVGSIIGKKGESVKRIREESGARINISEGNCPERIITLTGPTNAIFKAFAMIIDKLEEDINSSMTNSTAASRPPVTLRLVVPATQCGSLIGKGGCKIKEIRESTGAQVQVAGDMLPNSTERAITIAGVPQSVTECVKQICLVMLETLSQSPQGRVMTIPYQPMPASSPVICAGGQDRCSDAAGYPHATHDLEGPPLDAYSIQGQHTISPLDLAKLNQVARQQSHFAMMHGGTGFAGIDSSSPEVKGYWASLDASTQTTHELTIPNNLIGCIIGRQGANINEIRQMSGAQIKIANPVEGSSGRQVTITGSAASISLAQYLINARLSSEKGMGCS
UniProt P02769, 25-607: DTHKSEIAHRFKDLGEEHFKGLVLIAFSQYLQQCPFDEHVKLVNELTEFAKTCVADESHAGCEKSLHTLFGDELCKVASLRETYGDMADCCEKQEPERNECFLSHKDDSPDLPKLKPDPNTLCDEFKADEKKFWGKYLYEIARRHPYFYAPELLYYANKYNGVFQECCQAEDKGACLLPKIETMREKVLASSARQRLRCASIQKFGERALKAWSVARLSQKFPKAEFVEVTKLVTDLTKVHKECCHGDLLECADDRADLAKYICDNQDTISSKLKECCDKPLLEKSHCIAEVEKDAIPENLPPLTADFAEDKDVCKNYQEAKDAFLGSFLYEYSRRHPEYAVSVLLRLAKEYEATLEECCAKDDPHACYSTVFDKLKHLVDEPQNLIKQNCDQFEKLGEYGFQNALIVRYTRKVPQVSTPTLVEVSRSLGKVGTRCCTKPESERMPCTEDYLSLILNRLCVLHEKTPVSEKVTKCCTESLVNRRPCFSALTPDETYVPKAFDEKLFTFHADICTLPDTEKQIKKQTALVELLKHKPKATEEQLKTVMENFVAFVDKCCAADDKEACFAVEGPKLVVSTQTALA

The target in data set [1] is APE1 NΔ33 del1-33 (UniProt P27695). In words: UV-crosslinking. The note with it: weak bands, may reflect lysine loss; UV-crosslinking: 50 mM Tris-acetate pH 5.5, 50 mM KCl, 1 mM DTT, 0.8% glycerol, 0.4 mM EDTA, 4°C; recombinant protein; residues 34-318; label: 5' IRDye800 (SWB, UV-crosslinking); folded or branched DNA.
The target of data set [2] is APE1 WT (UniProt P27695). In words: UV-crosslinking. Particulars: pH 5.5, 0.4 mM EDTA, UV-crosslinking: 50 mM Tris-acetate pH 5.5, 50 mM KCl, 1 mM DTT, 0.8% glycerol, 4°C, recombinant protein, label: 5' IRDye800 (SWB, UV-crosslinking), folded or branched DNA.
Data set [3] concerns the target PCBP1 (hnRNP E1) (UniProt Q15365). Briefly: southwestern blot. The note with it: abstract: higher iM affinity than APE1; switchSENSE: MES pH 5.5 (APE1) or 6.5 (iMab); SMADNE: 25 mM MES pH 5.5, 150 mM NaCl, 0.1 mg/ml BSA, 1 mM DTT, 1 mM Trolox; recombinant protein; residues 1-356; label: 5' IRDye800 (SWB, UV-crosslinking); folded or branched DNA.
The target of data set [4] is BSA (UniProt P02769). Briefly: southwestern blot. The note with it: switchSENSE: MES pH 5.5 (APE1) or 6.5 (iMab); SMADNE: 25 mM MES pH 5.5, 150 mM NaCl, 0.1 mg/ml BSA, 1 mM DTT, 1 mM Trolox; commercial protein; label: 5' IRDye800 (SWB, UV-crosslinking); folded or branched DNA.

For some of these results: Negatives hold for the conditions tested. For some of these results: For at least one entry, the source does not settle the construct or the ends of the probe. For some of these results: The comparison behind a weaker result is the experiment's own reference, which may not be listed here. For some of these results: At least one verdict was read from the data and is not stated in words by the source.

Turning to TAACCCTAACCCTAACCCTAACCCTAA [C-NAT], the binding result in data set [1] is listed as “binds more weakly”; in data set [2] it was “binds”; in data set [3], “binds”; in data set [4], “no binding”.
